Laboratory results reported in publication PMC3560227.
No constants are given. Whether binding was seen depends on the method and setting. In cells and extracts the contact can be indirect. Some entries that bind do so weakly or less than the wild type. For part of these data: Tags and fused reporters may be left off the sequences shown.

By UniProt entry, the sequences of proteins in these tests, tags left out. Where a name states a change or a piece, a line headed by the entry shows the natural chain unless it says otherwise.
UniProt Q3SWW9: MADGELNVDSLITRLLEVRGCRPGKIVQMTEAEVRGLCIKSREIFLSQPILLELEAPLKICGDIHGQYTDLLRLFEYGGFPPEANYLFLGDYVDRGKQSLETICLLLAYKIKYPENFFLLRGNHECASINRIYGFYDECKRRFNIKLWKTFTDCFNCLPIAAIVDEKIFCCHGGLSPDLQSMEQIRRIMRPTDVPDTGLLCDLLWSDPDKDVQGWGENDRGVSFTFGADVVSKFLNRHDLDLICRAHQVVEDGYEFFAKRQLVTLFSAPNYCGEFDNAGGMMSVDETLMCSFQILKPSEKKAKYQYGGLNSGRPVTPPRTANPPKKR
UniProt P62140: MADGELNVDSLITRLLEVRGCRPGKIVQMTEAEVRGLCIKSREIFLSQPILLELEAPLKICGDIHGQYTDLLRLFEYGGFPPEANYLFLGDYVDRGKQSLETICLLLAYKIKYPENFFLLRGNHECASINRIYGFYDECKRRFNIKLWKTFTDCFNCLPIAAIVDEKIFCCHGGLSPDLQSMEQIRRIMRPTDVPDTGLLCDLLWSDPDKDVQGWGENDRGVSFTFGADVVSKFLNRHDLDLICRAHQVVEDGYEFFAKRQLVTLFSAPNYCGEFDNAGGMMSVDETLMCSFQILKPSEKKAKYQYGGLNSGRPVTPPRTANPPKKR

Legend:
[1] = molecular target: T1, TIMAP (TGF-β inhibited membrane-associated protein), endogenous in BPAEC (bovine (endogenous in BPAEC)) (UniProt Q95N27); test: co-IP; endogenous RACK1 or TIMAP immunoprecipitated from BPAEC lysate (20 mM Tris HCl pH 7.4, 150 mM NaCl, 2 mM EDTA, 2 mM sodium vanadate, 1% Nonidet P-40), protein G Sepharose, Western blot; in Figure 3B cells untreated or treated with forskolin or PMA
T1 sequence: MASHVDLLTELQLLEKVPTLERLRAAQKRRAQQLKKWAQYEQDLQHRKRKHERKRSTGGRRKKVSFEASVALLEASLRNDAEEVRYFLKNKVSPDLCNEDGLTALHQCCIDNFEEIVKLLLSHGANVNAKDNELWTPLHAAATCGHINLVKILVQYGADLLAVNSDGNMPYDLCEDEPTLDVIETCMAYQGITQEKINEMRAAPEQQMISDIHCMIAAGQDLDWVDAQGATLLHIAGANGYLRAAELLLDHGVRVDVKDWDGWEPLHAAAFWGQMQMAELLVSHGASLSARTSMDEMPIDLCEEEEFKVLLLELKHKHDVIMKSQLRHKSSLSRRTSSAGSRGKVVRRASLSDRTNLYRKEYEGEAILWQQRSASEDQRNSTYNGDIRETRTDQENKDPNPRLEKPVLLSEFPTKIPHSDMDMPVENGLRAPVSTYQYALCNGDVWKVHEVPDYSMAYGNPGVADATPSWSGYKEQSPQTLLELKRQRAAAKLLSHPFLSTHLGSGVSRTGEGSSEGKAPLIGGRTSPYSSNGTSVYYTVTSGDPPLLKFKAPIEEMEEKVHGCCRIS

[2] = molecular target: T2, GFP-TIMAP wt (wild type TIMAP/pEGFP) (not stated (NM_015568 is a human entry, from memory)) (UniProt Q96T49); test: co-IP; GFP or endogenous RACK1 immunoprecipitated from lysate of HeLa cells transfected with GFP-TIMAP wt; probed for RACK1, GFP and PP1cδ
T2 sequence: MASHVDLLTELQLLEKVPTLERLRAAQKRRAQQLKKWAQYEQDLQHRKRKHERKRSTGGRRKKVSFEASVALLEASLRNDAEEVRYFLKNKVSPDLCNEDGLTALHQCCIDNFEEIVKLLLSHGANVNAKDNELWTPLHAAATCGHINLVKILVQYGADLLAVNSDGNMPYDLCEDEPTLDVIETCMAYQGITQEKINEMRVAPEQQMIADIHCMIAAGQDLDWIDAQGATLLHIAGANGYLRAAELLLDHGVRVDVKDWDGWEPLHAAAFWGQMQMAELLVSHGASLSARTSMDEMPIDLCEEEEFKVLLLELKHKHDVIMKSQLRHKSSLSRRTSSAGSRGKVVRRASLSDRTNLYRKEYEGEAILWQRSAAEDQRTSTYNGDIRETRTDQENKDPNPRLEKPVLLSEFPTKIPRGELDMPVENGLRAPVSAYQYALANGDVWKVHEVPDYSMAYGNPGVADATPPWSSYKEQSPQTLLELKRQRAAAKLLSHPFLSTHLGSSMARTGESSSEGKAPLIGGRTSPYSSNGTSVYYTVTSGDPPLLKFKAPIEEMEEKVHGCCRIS

[3] = molecular target: T3, GFP-TIMAP ΔPP1c (truncated TIMAP/pEGFP) (not stated (NM_015568 is a human entry, from memory)) (UniProt Q96T49); test: co-IP; GFP or endogenous RACK1 immunoprecipitated from lysate of HeLa cells transfected with empty pEGFP or with GFP-TIMAP ΔPP1c; probed for RACK1, GFP and PP1cδ
T3 sequence: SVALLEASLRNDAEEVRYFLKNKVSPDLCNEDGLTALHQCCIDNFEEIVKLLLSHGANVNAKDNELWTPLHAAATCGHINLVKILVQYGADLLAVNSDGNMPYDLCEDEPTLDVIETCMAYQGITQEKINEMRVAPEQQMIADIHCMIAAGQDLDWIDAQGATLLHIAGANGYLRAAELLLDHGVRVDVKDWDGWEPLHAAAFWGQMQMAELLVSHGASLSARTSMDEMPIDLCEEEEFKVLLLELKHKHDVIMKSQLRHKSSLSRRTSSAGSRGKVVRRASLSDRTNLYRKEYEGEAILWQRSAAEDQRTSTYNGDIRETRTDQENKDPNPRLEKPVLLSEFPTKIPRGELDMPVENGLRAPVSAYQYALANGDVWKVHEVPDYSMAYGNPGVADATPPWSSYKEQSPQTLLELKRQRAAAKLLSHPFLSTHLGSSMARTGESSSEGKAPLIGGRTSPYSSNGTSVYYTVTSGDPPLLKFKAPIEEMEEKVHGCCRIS

| binding [1] | binding [2] | binding [3] | Substance |
| --- | --- | --- | --- |
| binds |  |  | PP1cδ (protein phosphatase 1 catalytic subunit δ), endogenous in BPAEC (from UniProt Q3SWW9 1-327) (enzyme) |
|  | binds | no binding | PP1cδ, endogenous in human cells (HeLa) (from UniProt P62140 1-327) (enzyme) |
